# Publication PMC4527730, “A Pan-GTPase Inhibitor as a Molecular Probe” (PLoS ONE, 2015)
# Some entries repeat one wording, which the source may state once for all of them.
# System: GTPases (H-Ras, H-Ras G12V, Cdc42, Cdc42 Q61L, Rac1, Rac1 Q61L, RhoA, Rab7)
# Test: Multiplex dose-response assay, statements across the GTPase panel
# Details: BODIPY-FL GTP 25 nM, 100 nM, 250 nM
row,SMILES,change of EC50 values with the concentration of BODIPY-FL GTP
1,O=C(NC(=S)Nc1sc2c(c1C(=O)O)CCOC2)c1ccccc1 [Compound 3],increased almost linearly
2,CC1(C)Cc2c(sc(NC(=S)NC(=O)c3ccc(F)cc3)c2C(=O)O)CO1 [Compound 9],increased almost linearly
3,CC1(C)Cc2c(sc(NC(=S)NC(=O)c3ccccc3)c2C(=O)O)CO1 [Compound 1],increased almost linearly
